# Patent US20070271623A1
# The chains behind the UniProt entries cited, without tags or fusion partners. Where a name states a change or a piece, a line headed by the entry shows the natural chain unless it says otherwise.
# UniProt P04386: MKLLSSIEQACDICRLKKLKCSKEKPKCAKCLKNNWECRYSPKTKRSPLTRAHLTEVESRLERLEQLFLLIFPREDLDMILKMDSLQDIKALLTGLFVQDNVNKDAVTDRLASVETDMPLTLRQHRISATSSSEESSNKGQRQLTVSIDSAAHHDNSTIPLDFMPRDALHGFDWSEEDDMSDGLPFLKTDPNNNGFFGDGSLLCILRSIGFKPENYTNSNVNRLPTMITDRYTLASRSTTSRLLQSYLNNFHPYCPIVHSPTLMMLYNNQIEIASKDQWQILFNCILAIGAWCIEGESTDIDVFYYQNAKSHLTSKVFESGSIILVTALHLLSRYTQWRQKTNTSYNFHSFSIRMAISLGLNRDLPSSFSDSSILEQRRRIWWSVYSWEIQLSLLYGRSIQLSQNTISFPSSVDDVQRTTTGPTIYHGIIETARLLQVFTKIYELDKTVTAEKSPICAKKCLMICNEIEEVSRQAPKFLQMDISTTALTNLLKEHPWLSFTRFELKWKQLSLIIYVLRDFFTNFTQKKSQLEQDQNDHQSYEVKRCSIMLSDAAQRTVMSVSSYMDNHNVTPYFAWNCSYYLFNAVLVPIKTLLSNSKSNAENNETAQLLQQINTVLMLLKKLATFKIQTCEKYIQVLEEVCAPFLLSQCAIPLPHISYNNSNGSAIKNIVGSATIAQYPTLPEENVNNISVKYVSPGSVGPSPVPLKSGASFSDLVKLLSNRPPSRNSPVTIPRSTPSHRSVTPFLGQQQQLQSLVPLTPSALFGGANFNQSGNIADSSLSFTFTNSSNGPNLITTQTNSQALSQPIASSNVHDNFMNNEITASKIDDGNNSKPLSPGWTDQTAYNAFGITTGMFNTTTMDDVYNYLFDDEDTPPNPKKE
# No constants are given. Whether binding was seen depends on the method and setting. Some results given as binding are weak or reduced against the parent protein; the word gives no strength. Tags and fused reporters may be left off the sequences shown.
# Biological target: T1, MKS1 as interacting prey (AD fusion) (Arabidopsis thaliana) (UniProt Q8LGD5)
# T1 sequence: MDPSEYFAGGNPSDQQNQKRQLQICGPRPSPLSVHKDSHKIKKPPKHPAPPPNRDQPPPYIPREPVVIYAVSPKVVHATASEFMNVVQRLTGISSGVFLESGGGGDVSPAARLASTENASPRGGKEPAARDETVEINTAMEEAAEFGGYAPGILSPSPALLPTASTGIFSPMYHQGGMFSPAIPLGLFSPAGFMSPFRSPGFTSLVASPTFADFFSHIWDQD
# Experiment: yeast two-hybrid library screen
substance,measurement,value
MPK4 as bait (BD fusion) (from UniProt P04386 1-147; Q39024 1-376),binding,binds
